Data: article PMC10125973, “A small secreted protein NICOL regulates lumicrine-mediated sperm maturation and male fertility” (Nature Communications, 2023)
Results are given in words; binding and its absence hold for the method and conditions named. For part of these data: Binding seen in cells or lysates may run through a third protein. Some results given as binding are weak or reduced against the parent protein; the word gives no strength. For part of these data: Tags and fused reporters may be left off the sequences shown.

By UniProt entry, the sequences of proteins in these tests, tags left out. Residues count along the entry.
UniProt Q61220, residues 25-819: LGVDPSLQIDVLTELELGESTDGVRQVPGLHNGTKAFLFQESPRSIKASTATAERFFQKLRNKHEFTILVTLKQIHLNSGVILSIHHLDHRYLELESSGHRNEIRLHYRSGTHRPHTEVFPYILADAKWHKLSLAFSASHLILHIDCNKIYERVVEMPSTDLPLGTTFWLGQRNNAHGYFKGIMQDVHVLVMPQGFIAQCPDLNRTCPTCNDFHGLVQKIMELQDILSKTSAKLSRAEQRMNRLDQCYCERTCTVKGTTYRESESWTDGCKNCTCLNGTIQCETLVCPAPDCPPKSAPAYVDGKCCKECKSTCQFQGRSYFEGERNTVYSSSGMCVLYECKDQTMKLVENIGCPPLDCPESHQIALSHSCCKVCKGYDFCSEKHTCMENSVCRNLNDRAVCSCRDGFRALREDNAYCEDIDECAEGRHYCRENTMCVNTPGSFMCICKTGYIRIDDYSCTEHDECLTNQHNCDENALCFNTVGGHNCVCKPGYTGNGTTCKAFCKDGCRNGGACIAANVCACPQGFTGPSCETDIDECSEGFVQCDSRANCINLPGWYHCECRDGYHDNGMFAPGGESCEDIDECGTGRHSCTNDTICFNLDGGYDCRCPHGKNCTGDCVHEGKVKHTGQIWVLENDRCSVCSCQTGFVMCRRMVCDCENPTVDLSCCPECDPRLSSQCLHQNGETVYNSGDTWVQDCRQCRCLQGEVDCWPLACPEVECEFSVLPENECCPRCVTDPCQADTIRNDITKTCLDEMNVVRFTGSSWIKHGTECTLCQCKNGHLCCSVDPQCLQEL
UniProt Q78DX7, residues 29-1854: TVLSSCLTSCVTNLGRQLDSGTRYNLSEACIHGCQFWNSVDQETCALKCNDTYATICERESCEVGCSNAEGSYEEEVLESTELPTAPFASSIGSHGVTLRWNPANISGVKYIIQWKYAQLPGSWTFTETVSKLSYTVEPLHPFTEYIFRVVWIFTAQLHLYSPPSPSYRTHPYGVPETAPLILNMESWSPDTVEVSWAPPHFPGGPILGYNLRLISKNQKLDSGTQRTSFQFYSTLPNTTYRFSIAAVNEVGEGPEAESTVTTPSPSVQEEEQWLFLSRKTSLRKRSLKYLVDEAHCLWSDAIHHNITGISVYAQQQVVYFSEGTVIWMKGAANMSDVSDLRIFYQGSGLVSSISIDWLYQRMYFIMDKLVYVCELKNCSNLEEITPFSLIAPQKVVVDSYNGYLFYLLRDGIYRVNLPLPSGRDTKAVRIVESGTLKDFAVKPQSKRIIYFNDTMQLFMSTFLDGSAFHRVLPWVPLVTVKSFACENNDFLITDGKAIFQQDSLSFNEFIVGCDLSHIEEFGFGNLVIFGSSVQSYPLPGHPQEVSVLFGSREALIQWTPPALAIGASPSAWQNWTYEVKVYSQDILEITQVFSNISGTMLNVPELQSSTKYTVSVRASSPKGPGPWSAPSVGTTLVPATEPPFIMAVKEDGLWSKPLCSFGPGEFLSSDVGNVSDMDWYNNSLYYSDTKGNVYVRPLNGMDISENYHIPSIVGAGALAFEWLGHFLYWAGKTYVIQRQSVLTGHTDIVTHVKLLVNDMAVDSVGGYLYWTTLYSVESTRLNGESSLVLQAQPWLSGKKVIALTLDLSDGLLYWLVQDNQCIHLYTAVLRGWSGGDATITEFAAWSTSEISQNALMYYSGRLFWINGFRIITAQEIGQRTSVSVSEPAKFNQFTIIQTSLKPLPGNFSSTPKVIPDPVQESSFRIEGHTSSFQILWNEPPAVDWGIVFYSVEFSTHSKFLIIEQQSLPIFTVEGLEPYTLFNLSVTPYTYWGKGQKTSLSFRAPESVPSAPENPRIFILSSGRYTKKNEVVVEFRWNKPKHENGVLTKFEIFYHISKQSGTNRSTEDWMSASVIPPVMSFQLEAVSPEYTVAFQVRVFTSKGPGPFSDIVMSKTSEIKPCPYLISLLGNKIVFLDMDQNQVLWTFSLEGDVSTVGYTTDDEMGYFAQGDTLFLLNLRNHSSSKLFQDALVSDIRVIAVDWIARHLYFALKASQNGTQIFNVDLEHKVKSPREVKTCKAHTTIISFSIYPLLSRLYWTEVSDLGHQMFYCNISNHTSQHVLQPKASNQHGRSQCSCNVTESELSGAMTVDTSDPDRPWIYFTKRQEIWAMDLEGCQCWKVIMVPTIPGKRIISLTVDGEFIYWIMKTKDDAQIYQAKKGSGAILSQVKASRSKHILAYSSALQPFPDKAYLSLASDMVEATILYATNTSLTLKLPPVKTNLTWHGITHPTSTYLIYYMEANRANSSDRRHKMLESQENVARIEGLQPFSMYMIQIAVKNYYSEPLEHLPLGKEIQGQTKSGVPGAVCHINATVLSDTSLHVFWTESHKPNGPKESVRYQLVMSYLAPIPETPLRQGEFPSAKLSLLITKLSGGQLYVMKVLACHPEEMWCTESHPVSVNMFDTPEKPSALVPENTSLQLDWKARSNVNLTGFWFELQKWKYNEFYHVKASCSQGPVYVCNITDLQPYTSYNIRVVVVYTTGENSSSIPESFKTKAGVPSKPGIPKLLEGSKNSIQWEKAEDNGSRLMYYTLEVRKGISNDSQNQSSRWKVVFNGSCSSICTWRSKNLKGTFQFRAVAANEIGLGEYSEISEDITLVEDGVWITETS

Columns and labels:
[1] = target: T1, NICOL-PA-Rho1D4 from the Clgn-Nicol transgene (mouse) (UniProt Q3UR78); experiment: co-IP; testis lysates of Clgn-Nell2 and Clgn-Nicol transgenic mice; NICOL immunoprecipitated with anti-Rho1D4 and Dynabeads protein G; NICOL detected with anti-PA, NELL2 with anti-NELL2
T1 sequence: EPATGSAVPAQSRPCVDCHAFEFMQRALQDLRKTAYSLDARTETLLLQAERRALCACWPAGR

[2] = target: T2, NELL2-interacting cofactor for lumicrine signalling (NICOL), 6xHis-tagged recombinant (mouse) (UniProt Q3UR78); experiment: pull-down; purified NICOL conjugated to NHS-activated agarose; lysate of 293 F cells expressing ROS1 ectodomain (1 ml of 1 mg protein/ml), overnight at 4 °C; immunoblot with anti-Rho1D4; only the target purified
T2 sequence: T1 sequence

[3] = target: T2, NELL2-interacting cofactor for lumicrine signalling (NICOL), 6xHis-tagged recombinant (mouse); experiment: pull-down; purified NICOL conjugated to NHS-activated agarose (100 ug on 25 ul beads); purified recombinant NELL2 applied; immunoblot with anti-NELL2; both purified

NELL2 in testis lysate of Clgn-Nell2 transgenic mice (from UniProt Q61220 25-819)
binding [1]: binds

ROS1 extracellular domain followed by 8xHis and Rho1D4 epitope (from UniProt Q78DX7 29-1854) (domain or fragment)
binding [2]: binds

neural epidermal growth factor-like like 2 (NELL2), C-terminally 6xHis-tagged recombinant (from UniProt Q61220 25-819)
binding [3]: binds
